Data reported in article PMC10781510.
Results are given in words; binding and its absence hold for the method and conditions named. Binding seen in cells or lysates may run through a third protein. Here binding means that the protein was enriched with, or labelled near, the bait; the list need not be complete.

The chains behind the UniProt entries cited, without tags or fusion partners.
UniProt Q9JLV5: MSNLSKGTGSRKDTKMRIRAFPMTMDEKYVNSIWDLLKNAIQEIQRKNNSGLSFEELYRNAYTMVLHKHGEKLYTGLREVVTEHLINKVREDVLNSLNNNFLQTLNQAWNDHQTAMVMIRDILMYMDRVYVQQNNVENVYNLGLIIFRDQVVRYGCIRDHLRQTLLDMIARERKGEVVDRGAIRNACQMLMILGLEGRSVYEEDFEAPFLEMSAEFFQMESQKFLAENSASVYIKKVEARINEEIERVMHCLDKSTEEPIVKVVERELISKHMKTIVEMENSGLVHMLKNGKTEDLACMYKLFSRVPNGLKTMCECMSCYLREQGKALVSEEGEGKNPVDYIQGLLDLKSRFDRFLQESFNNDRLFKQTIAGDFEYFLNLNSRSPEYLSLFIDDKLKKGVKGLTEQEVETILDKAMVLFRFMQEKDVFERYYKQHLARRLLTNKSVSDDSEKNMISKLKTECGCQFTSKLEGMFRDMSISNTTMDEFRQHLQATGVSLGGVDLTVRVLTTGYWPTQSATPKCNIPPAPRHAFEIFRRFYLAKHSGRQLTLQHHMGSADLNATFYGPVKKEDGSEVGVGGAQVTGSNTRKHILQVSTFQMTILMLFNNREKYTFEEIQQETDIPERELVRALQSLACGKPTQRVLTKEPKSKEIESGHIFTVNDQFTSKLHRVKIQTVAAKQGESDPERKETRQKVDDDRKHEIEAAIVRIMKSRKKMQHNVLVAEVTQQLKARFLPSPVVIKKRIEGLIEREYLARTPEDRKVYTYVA
UniProt Q80TT8: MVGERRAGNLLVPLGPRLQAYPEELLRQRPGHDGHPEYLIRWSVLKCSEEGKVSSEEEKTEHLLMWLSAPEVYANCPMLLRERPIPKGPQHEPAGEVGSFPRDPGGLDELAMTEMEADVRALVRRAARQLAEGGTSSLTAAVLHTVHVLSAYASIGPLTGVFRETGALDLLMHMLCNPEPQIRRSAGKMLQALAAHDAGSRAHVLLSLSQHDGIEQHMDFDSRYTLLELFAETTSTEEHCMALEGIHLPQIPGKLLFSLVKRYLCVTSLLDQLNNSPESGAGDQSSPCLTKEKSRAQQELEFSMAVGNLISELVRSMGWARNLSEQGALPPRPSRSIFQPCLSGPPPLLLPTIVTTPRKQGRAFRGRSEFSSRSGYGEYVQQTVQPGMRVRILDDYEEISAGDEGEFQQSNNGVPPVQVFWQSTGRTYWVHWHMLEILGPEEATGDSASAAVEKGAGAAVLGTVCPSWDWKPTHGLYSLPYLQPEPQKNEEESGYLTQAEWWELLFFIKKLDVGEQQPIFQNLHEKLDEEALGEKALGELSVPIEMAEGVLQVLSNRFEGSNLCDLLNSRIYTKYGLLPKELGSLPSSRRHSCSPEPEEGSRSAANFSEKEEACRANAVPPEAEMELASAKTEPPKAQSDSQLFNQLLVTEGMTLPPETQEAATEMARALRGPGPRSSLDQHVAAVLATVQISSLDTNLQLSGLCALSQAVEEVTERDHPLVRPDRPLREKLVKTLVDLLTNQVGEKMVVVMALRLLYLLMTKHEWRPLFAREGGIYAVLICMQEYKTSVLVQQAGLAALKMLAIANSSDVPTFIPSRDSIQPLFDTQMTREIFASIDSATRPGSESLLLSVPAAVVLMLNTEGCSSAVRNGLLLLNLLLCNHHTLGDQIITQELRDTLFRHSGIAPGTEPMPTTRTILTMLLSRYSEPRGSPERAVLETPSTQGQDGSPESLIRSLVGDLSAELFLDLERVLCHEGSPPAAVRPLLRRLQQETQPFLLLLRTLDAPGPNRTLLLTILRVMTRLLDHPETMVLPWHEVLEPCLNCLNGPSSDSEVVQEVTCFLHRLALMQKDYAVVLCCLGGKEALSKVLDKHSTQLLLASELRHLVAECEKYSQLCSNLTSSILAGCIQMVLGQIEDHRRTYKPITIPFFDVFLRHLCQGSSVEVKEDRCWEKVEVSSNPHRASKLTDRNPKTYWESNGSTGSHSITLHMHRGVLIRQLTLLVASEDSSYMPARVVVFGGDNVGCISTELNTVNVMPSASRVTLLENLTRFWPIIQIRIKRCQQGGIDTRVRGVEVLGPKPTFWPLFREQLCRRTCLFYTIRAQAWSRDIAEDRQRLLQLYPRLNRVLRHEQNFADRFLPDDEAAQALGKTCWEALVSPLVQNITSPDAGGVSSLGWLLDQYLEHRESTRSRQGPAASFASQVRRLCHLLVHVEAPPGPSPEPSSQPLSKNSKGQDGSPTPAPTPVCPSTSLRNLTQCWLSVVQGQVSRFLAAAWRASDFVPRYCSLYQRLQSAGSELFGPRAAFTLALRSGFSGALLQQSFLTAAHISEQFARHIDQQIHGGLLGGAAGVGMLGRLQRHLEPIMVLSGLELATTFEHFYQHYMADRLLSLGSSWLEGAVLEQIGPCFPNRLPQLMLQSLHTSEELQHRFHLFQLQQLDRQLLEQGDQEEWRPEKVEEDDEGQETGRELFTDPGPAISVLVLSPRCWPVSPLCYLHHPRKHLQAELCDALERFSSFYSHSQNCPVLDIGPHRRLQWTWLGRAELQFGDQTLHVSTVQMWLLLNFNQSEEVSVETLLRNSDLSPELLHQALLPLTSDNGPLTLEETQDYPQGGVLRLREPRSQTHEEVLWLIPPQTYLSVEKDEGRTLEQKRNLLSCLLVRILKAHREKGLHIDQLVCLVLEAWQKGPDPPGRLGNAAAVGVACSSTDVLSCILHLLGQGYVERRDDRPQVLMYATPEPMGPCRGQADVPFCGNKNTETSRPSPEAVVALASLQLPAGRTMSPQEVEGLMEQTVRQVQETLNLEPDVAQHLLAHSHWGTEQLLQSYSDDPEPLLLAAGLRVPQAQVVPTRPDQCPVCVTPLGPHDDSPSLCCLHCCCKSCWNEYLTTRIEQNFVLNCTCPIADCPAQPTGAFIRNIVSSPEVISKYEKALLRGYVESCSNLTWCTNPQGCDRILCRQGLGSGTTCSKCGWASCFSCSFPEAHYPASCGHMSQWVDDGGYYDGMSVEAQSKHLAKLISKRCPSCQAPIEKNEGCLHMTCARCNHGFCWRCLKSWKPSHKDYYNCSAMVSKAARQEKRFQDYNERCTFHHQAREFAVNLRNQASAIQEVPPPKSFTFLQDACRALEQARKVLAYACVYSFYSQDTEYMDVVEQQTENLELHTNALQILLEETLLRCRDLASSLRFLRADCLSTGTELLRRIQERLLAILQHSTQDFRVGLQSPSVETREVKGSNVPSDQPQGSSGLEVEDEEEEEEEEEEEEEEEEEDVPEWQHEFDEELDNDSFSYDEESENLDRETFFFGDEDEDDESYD

T1: GASZ (endogenous, testis) (mouse (endogenous in testis)) (UniProt Q8VD46)
T1 sequence: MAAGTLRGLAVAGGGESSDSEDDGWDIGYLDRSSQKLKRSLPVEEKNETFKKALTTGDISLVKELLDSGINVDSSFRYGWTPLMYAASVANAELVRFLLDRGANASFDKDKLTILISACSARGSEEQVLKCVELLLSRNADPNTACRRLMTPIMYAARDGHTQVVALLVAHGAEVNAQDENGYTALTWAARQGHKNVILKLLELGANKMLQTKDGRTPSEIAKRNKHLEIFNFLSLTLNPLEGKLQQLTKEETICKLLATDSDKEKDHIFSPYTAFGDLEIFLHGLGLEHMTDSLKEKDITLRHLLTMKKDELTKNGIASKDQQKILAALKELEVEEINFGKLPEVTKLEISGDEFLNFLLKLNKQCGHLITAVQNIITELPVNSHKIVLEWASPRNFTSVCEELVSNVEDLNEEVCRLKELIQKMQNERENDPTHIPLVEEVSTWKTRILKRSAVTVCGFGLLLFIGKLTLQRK


Target: T1, GASZ (endogenous, testis) (mouse (endogenous in testis))
Experiment: affinity purification with mass spectrometry; testes homogenised in lysis buffer, cleared supernatant with a GASZ antibody and protein A/G-agarose beads, LC/MS

Row | binding | Molecule
1 | binds | CULLN3 (CUL3) (from UniProt Q9JLV5 1-768) (enzyme)
2 | binds | CULLN9 (CUL9) (from UniProt Q80TT8 1-2530) (enzyme)
3 | binds | MYCBP2 (from UniProt Q7TPH6 1-4749) (enzyme)
4 | binds | TRIM21 (enzyme, UniProt Q62191 1-470) MSPSTTSKMSLEKMWEEVTCSICLDPMVEPMSIECGHCFCKECIFEVGKNGGSSCPECRQQFLLRNLRPNRHIANMVENLKQIAQNTKKSTQETHCMKHGEKLHLFCEEDGQALCWVCAQSGKHRDHTRVPIEEAAKVYQEKIHVVLEKLRKGKELAEKMEMDLTMQRTDWKRNIDTQKSRIHAEFALQNSLLAQEEQRQLQRLEKDQREYLRLLGKKEAELAEKNQALQELISELERRIRGSELELLQEVRIILERSGSWNLDTLDIDAPDLTSTCPVPGRKKMLRTCWVHITLDRNTANSWLIISKDRRQVRMGDTHQNVSDNKERFSNYPMVLGAQRFSSGKMYWEVDVTQKEAWDLGVCRDSVQRKGQFSLSPENGFWTIWLWQDSYEAGTSPQTTLHIQVPPCQIGIFVDYEAGVVSFYNITDHGSLIYTFSECVFAGPLRPFFNVGFNYSGGNAAPLKLCPLKM
